Measurements taken from US20250026838A1.
Results are given in words; binding and its absence hold for the method and conditions named. Some binding calls cover weakened binding; strength is not graded here.

Chains of the proteins cited; added tags and fusions are not shown. Lines headed by an entry give the natural chain unless they say otherwise; changes in a name come on top. Residues count along the entry.
UniProt P02748, residues 22-559: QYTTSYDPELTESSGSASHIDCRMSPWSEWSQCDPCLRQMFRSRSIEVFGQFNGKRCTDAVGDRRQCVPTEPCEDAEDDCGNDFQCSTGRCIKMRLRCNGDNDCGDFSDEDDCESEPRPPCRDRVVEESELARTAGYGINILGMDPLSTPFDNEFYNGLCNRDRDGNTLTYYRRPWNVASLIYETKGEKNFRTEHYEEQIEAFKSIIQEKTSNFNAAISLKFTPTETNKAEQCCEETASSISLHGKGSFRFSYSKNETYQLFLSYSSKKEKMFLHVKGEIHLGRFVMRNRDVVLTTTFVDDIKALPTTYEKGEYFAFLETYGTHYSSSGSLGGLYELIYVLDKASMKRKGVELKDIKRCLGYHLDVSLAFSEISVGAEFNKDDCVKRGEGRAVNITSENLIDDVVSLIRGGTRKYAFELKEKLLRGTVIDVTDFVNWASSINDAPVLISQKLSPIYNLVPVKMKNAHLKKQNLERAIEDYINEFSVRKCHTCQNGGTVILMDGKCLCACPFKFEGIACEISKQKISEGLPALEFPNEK
UniProt P17931: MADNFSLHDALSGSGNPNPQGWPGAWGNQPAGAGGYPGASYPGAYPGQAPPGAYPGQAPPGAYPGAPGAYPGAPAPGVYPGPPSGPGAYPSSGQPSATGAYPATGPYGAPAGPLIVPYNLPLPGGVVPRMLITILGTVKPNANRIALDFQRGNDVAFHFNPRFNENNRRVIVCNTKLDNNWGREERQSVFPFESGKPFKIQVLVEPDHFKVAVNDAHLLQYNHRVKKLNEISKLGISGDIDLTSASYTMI

Target: human C9 (complement protein C9) (human) (UniProt P02748)
Assay: ELISA; galectin-3 coated, biotinylated aggregated C9, Avidin-HRP

## Human Galectin-3 (Gal3) protein (from UniProt P17931 1-250)
  binding: binds
